Values quoted from earlier work in patent US20210315844A1, “ENDOXIFEN FOR THE TREATMENT OF BIPOLAR I DISORDER” (Jina Pharmaceuticals, Inc., priority 2020, published 2021).
At least one structure is not confirmed: it was looked up by name or label, or the drawing left a doubt.

System: individuals with bipolar disorder
Details: cited from earlier work

Compound: [Li] [lithium]
- population attributable fraction: suicide related events that could have been avoided (if patients had taken lithium during the entire study): 12%
- decrease of incidence rate of suicide-related events during treatment (treated vs untreated periods, follow-up 2005 to 2013, around 51000 individuals): 14%
